Results published in the supplement of paper PMC10849652.
This is one part of the list.

By UniProt entry, the sequences of proteins in these tests, tags left out. Where a name states a change or a piece, a line headed by the entry shows the natural chain unless it says otherwise.
UniProt Q9Y3A5: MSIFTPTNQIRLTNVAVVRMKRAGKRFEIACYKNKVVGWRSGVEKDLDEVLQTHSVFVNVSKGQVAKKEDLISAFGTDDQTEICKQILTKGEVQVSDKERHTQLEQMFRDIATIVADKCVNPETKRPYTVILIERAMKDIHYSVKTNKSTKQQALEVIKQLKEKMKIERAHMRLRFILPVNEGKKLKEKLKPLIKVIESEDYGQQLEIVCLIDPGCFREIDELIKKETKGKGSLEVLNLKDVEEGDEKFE
UniProt O95197: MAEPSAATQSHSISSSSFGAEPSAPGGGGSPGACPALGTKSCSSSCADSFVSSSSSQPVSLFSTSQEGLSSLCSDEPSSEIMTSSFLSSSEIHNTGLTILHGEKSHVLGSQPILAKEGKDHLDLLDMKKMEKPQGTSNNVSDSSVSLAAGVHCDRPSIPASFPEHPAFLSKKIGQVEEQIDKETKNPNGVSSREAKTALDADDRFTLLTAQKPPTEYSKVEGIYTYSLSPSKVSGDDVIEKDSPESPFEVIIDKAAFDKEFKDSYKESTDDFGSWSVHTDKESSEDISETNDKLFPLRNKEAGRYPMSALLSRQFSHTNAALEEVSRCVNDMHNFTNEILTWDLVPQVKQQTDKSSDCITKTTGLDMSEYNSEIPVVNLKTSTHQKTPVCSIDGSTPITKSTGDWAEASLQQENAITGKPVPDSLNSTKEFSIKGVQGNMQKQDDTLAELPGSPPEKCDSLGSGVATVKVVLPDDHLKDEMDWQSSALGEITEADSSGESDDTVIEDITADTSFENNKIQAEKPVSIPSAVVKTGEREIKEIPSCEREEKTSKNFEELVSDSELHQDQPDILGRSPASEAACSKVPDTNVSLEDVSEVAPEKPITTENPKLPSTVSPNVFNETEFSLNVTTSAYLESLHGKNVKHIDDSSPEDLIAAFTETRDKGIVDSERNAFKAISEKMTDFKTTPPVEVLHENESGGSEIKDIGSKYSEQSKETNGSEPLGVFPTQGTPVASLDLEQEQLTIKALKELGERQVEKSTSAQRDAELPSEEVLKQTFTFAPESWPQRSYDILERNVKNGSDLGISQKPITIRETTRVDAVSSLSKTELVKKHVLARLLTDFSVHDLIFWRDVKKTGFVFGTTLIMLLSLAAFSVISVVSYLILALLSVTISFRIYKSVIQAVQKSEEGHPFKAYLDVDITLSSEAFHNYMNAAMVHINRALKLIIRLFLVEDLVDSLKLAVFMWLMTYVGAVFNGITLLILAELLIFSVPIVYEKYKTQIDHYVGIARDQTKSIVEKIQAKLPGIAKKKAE
UniProt Q9NR31: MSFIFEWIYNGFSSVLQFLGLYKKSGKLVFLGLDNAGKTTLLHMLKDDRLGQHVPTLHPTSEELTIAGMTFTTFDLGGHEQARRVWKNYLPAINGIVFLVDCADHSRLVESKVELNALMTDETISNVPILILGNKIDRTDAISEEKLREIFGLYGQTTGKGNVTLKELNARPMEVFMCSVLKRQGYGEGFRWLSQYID
UniProt P21912: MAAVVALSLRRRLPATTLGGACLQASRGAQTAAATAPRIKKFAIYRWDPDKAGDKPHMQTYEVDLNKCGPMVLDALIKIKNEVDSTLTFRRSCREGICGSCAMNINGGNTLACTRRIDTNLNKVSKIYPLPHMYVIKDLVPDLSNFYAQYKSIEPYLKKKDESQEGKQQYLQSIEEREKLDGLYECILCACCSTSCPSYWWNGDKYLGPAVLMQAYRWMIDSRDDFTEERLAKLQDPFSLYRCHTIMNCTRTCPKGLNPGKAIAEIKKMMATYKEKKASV
UniProt Q8WVM8, whole entry, looked up: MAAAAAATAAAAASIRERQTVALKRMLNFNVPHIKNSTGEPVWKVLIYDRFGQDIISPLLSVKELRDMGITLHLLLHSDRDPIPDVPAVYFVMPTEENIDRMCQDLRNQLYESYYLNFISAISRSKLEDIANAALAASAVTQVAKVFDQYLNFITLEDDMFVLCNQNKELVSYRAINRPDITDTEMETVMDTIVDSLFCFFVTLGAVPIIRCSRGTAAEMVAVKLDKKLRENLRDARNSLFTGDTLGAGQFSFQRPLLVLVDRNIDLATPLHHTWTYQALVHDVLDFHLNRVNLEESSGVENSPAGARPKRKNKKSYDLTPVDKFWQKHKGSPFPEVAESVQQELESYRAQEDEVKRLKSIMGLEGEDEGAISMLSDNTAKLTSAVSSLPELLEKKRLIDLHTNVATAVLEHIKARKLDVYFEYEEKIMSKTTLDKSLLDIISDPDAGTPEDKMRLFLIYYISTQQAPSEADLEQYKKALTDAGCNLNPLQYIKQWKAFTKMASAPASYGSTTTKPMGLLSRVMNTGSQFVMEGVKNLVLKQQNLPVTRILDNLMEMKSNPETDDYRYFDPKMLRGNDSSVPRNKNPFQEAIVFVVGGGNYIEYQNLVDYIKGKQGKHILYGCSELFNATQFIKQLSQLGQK
UniProt Q9Y224: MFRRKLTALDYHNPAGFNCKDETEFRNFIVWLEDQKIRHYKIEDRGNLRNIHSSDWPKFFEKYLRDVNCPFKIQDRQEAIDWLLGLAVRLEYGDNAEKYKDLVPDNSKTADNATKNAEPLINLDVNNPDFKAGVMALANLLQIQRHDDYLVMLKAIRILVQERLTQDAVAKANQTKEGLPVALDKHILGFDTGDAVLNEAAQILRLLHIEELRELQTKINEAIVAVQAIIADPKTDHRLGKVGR
UniProt Q12770: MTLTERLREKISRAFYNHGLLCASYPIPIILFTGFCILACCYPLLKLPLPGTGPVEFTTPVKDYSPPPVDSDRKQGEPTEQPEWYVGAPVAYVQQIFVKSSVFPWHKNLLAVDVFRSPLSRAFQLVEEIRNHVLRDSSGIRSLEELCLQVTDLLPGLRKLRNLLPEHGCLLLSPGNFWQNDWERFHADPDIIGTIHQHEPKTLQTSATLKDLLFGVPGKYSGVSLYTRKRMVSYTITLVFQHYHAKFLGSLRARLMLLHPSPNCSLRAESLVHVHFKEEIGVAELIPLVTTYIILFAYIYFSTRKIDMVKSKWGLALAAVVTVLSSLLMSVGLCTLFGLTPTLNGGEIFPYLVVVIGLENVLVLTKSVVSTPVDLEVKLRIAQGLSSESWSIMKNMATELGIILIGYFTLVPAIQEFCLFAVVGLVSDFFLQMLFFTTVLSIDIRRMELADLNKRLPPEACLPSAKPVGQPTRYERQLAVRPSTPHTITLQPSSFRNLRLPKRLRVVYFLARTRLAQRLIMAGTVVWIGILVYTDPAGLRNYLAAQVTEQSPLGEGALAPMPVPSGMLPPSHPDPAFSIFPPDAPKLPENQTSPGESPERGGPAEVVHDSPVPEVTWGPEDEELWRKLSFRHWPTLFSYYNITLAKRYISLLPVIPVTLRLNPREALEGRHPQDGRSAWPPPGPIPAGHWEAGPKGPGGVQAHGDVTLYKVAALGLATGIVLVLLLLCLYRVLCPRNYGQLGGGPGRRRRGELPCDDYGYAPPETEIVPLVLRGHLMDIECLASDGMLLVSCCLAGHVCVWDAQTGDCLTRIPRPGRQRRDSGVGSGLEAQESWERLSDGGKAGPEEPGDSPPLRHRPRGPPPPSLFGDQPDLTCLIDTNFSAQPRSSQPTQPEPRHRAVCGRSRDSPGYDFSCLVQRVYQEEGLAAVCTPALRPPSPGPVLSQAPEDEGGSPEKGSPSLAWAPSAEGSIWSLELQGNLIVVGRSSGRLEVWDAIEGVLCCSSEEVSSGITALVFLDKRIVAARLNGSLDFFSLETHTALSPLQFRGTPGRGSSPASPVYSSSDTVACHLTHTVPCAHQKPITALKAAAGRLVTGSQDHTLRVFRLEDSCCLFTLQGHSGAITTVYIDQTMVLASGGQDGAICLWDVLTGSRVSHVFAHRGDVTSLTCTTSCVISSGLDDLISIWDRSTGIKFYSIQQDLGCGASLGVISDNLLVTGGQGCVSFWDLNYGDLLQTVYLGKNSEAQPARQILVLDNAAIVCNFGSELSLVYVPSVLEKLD
UniProt Q6PCB5: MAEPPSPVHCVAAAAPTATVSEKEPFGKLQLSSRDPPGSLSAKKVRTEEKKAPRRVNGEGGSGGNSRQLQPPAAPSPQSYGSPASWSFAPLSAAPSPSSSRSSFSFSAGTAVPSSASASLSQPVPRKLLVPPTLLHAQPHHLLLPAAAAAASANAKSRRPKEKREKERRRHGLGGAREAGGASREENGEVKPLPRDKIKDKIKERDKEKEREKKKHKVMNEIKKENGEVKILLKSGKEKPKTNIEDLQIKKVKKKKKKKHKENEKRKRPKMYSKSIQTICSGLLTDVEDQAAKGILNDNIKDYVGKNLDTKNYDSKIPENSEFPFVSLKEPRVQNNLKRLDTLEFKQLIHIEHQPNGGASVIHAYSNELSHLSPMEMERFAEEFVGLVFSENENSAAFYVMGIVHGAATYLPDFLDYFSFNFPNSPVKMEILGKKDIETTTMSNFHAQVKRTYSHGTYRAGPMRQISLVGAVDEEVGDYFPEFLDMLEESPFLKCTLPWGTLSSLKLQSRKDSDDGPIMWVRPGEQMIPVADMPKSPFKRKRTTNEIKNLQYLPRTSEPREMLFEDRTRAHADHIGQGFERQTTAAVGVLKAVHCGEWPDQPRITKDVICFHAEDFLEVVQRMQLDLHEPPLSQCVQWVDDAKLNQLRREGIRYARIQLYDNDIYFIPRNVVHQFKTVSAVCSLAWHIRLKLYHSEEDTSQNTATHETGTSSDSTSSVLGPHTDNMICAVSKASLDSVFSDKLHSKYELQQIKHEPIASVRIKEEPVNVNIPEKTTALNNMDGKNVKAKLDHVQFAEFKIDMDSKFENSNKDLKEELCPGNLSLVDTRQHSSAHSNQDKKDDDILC
UniProt Q9Y3Z3: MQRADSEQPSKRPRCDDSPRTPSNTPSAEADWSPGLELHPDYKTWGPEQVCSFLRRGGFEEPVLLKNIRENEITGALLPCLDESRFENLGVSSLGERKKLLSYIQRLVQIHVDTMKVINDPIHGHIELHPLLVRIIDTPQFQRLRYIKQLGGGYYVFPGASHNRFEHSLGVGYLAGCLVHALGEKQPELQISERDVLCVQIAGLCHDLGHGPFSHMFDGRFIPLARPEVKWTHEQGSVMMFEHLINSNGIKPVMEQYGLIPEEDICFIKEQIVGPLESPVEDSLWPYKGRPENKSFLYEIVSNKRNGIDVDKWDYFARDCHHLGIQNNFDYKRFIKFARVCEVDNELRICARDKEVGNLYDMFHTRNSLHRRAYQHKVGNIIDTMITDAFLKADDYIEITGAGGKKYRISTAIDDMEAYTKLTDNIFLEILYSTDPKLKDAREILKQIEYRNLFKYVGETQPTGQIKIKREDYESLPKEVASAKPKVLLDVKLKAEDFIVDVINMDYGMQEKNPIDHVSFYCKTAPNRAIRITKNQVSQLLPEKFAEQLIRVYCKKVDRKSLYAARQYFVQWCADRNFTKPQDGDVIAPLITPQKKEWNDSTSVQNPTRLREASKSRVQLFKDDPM
UniProt O15126: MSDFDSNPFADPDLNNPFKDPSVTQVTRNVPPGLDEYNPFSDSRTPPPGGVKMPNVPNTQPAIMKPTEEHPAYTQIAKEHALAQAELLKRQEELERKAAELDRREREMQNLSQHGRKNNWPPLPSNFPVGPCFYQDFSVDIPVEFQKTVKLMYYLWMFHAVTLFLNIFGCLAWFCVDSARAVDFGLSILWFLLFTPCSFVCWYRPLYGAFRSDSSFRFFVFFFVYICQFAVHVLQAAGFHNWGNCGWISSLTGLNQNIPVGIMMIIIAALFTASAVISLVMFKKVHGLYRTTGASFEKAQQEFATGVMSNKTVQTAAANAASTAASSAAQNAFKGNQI
UniProt Q96KG9: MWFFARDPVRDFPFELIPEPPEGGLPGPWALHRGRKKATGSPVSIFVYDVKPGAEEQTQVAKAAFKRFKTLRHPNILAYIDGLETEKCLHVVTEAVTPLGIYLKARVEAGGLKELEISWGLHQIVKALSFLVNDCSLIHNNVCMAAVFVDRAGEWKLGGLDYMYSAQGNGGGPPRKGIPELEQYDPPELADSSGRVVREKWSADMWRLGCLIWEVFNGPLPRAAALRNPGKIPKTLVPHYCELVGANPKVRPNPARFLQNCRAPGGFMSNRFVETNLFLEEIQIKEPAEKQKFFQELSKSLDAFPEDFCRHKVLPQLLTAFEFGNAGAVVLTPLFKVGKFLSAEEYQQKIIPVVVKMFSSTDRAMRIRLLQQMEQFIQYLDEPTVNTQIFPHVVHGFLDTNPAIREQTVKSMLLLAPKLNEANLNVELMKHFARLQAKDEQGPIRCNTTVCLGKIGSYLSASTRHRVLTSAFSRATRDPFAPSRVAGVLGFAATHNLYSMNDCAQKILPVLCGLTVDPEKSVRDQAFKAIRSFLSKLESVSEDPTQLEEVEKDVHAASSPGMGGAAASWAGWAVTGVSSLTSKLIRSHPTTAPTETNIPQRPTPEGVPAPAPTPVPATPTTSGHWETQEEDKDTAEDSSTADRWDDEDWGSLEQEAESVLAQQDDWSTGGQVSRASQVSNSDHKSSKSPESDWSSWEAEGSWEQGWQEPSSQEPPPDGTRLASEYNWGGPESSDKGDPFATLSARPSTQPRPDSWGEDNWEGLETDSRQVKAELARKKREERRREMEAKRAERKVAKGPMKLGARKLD

What was measured:
Assay in all cases: log2 fold change, soluble protein after heating vs DMSO (PISA); higher = thermal stabilisation; K562 cells, 10 uM, 30 min; active = over 0.2 and 3.5 SD of the protein, either way, in both replicates (recomputed)
saracatinib = compound: CN1CCN(CCOc2cc(OC3CCOCC3)c3c(Nc4c(Cl)ccc5c4OCO5)ncnc3c2)CC1 [saracatinib]
In short: (§1)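 K562 cells (2×10^6 cells/mL) were treated with 10 μM compound for 30 min, and aliquots were heated for 3 min over 48°C-58°C. Pooled aliquots were extracted in PBS with 0.5% NP-40 at 4°C, and the supernatant after 21,000xg for 90 min was measured by TMTpro 16plex LC-MS/MS with channel sums equalised. Reported thermal stability, relative to control samples and from duplicates, is a log2 fold change.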

sotrastaurin = compound: CN1CCN(c2nc(C3=C(c4c[nH]c5ccccc45)C(=O)NC3=O)c3ccccc3n2)CC1 [sotrastaurin]
In short: as §1

alvocidib = compound: CN1CC[C@H](c2c(O)cc(O)c3c(=O)cc(-c4ccccc4Cl)oc23)[C@H](O)C1 [alvocidib]
In short: as §1

Tubastatin A = compound: CN1CCc2c(c3ccccc3n2Cc2ccc(C(=O)NO)cc2)C1 [Tubastatin A]
In short: as §1

[1] = compound: CNC(=O)C1=CC=CC=C1NC2=NC(=NC=C2Cl)NC3=C(C=C(C=C3)N4CCOCC4)OC
In short: as §1

defactinib = compound: CNC(=O)c1ccc(Nc2ncc(C(F)(F)F)c(NCc3nccnc3N(C)S(C)(=O)=O)n2)cc1 [defactinib]
In short: as §1

rucaparib = compound: CNCc1ccc(-c2[nH]c3cc(F)cc4c3c2CCNC4=O)cc1 [rucaparib]
In short: as §1

[2] = compound: CNc1nc(-c2ccc3c(N)n[nH]c3c2)cc(N2C[C@@H](C(=O)NC3CCCCC3)CC[C@H]2C)n1
In short: as §1

encorafenib = compound: COC(=O)N[C@@H](C)CNc1nccc(-c2cn(C(C)C)nc2-c2cc(Cl)cc(NS(C)(=O)=O)c2F)n1 [encorafenib]
In short: as §1

[3] = compound: COC(=O)[C@H](CCSC)NC(=O)C1=C(C=C(C=C1)NC[C@H](CS)N)C2=CC=CC=C2
In short: as §1

[4] = compound: COC1=CC=C(C=C1)CN2C=CC3=C2C=C(C=C3)C(=O)NO
In short: as §1

filanesib = compound: CON(C)C(=O)N1N=C(c2cc(F)ccc2F)S[C@@]1(CCCN)c1ccccc1 [filanesib]
In short: as §1

zotarolimus = compound: CO[C@H]1C[C@@H]2CC[C@@H](C)[C@@](O)(O2)C(=O)C(=O)N2CCCC[C@H]2C(=O)O[C@H]([C@H](C)C[C@@H]2CC[C@H](n3cnnn3)[C@H](OC)C2)CC(=O)[C@H](C)/C=C(\C)[C@@H](O)[C@@H](OC)C(=O)[C@H](C)C[C@H](C)/C=C/C=C/C=C/1C [zotarolimus]
In short: as §1

idasanutlin = compound: COc1cc(C(=O)O)ccc1NC(=O)[C@@H]1N[C@@H](CC(C)(C)C)[C@](C#N)(c2ccc(Cl)cc2F)[C@H]1c1cccc(Cl)c1F [idasanutlin]
In short: as §1

alisertib = compound: COc1cc(Nc2ncc3c(n2)-c2ccc(Cl)cc2C(c2c(F)cccc2OC)=NC3)ccc1C(=O)O [alisertib]
In short: as §1

[5] = compound: COc1cc2nc(-c3cc(F)ccc3O)nc(N[C@@H]3CNC[C@H]3C(C)(C)O)c2cc1OC
In short: as §1

gefitinib = compound: COc1cc2ncnc(Nc3ccc(F)c(Cl)c3)c2cc1OCCCN1CCOCC1 [gefitinib]
In short: as §1

[6] = compound: COc1cccc2cc(-c3nc([C@H]4CC[C@H](C(=O)O)CC4)n4ncnc(N)c34)[nH]c12
In short: as §1

lapatinib = compound: CS(=O)(=O)CCNCc1ccc(-c2ccc3ncnc(Nc4ccc(OCc5cccc(F)c5)c(Cl)c4)c3c2)o1 [lapatinib]
In short: as §1

pictilisib = compound: CS(=O)(=O)N1CCN(Cc2cc3nc(-c4cccc5[nH]ncc45)nc(N4CCOCC4)c3s2)CC1 [pictilisib]
In short: as §1

Measured: log2 fold change

SBDS (UniProt Q9Y3A5)
inactive: saracatinib -0.012 | sotrastaurin -0.013 | alvocidib -0.07 | Tubastatin A 0.041 | [1] 0.006 | defactinib 0 | rucaparib -0.018 | [2] 0.06 | encorafenib 0.052 | [3] -0.032 | [4] 0.036 | filanesib -0.116 | zotarolimus 0.022 | idasanutlin -0.125 | alisertib -0.054 | [5] 0.106 | gefitinib 0.024 | [6] -0.016 | lapatinib -0.043 | pictilisib 0.015

SART1 (UniProt O43290)
inactive: saracatinib -0.054 | sotrastaurin -0.009 | alvocidib 0.165 | Tubastatin A 0.095 | [1] -0.048 | defactinib 0.173 | rucaparib 0.257 | [2] 0.059 | encorafenib 0.168 | [3] 0.025 | [4] 0.075 | filanesib 0.44 | zotarolimus 0.002 | idasanutlin 0.193 | alisertib -0.079 | [5] -0.096 | gefitinib -0.078 | [6] -0.156 | lapatinib 0.146 | pictilisib -0.19

RTN3 (UniProt O95197)
inactive: saracatinib -0.051 | sotrastaurin 0.05 | alvocidib -0.059 | Tubastatin A 0.001 | [1] -0.011 | defactinib 0.001 | rucaparib -0.116 | [2] -0.015 | encorafenib 0.009 | [3] 0.014 | [4] -0.02 | filanesib 0.014 | zotarolimus 0.001 | idasanutlin 0.051 | alisertib 0.025 | [5] -0.037 | gefitinib 0.013 | [6] 0.065 | lapatinib -0.039 | pictilisib 0.052

SAR1A (UniProt Q9NR31)
inactive: saracatinib 0.022 | sotrastaurin -0.058 | alvocidib 0.109 | Tubastatin A -0.047 | [1] 0.03 | defactinib 0.017 | rucaparib -0.014 | [2] -0.072 | encorafenib 0.012 | [3] -0.011 | [4] 0.101 | filanesib -0.087 | zotarolimus -0.031 | idasanutlin -0.068 | alisertib -0.033 | [5] 0.037 | gefitinib 0.009 | [6] 0.01 | lapatinib -0.025 | pictilisib 0.016

SCYL2 (UniProt Q6P3W7)
inactive: saracatinib 0.017 | sotrastaurin -0.025 | alvocidib -0.054 | Tubastatin A 0.008 | [1] 0.014 | defactinib -0.083 | rucaparib -0.021 | [2] -0.039 | encorafenib 0.036 | [3] -0.065 | [4] -0.017 | filanesib -0.038 | zotarolimus 0.012 | idasanutlin -0.057 | alisertib 0.035 | [5] 0.033 | gefitinib -0.006 | [6] -0.008 | lapatinib -0.006 | pictilisib -0.002

2 neighbouring entries out of the list so far, for reference:
SART1 (UniProt O43290)
inactive: saracatinib -0.054 | sotrastaurin -0.009 | alvocidib 0.165 | Tubastatin A 0.095 | [1] -0.048 | defactinib 0.173 | rucaparib 0.257 | [2] 0.059 | encorafenib 0.168 | [3] 0.025 | [4] 0.075 | filanesib 0.44 | zotarolimus 0.002 | idasanutlin 0.193 | alisertib -0.079 | [5] -0.096 | gefitinib -0.078 | [6] -0.156 | lapatinib 0.146 | pictilisib -0.19

RTN3 (UniProt O95197)
inactive: saracatinib -0.051 | sotrastaurin 0.05 | alvocidib -0.059 | Tubastatin A 0.001 | [1] -0.011 | defactinib 0.001 | rucaparib -0.116 | [2] -0.015 | encorafenib 0.009 | [3] 0.014 | [4] -0.02 | filanesib 0.014 | zotarolimus 0.001 | idasanutlin 0.051 | alisertib 0.025 | [5] -0.037 | gefitinib 0.013 | [6] 0.065 | lapatinib -0.039 | pictilisib 0.052

Following part.

SDHB (UniProt P21912)
inactive: saracatinib 0.032 | sotrastaurin 0.02 | alvocidib 0.021 | Tubastatin A -0.045 | [1] 0.013 | defactinib 0.006 | rucaparib -0.017 | [2] -0.067 | encorafenib -0.014 | [3] 0.029 | [4] 0.013 | filanesib -0.051 | zotarolimus 0.011 | idasanutlin 0.074 | alisertib -0.126 | [5] -0.047 | gefitinib 0.014 | [6] 0.004 | lapatinib -0.004 | pictilisib 0.058

SART3, A0A499FI31
active: alvocidib -0.291 | defactinib -0.448
inactive: saracatinib -0.011 | sotrastaurin -0.13 | Tubastatin A 0.035 | [1] 0.021 | rucaparib -0.156 | [2] -0.041 | encorafenib 0.025 | [3] 0.001 | [4] 0.059 | filanesib -0.036 | zotarolimus 0.054 | idasanutlin -0.044 | alisertib -0.042 | [5] -0.192 | gefitinib -0.019 | [6] -0.019 | lapatinib 0.016 | pictilisib -0.083

SCFD1 (UniProt Q8WVM8)
inactive: saracatinib -0.058 | sotrastaurin -0.048 | alvocidib -0.07 | Tubastatin A 0.001 | [1] 0.01 | defactinib -0.088 | rucaparib 0.064 | [2] 0.038 | encorafenib 0.038 | [3] -0.024 | [4] 0.032 | filanesib -0.071 | zotarolimus 0.027 | idasanutlin -0.145 | alisertib 0.02 | [5] 0.102 | gefitinib 0.021 | [6] -0.016 | lapatinib -0.022 | pictilisib 0.015

RTRAF (UniProt Q9Y224)
inactive: saracatinib -0.063 | sotrastaurin -0.013 | alvocidib 0.099 | Tubastatin A -0.003 | [1] 0.099 | defactinib 0.148 | rucaparib 0.158 | [2] 0.011 | encorafenib 0.045 | [3] -0.009 | [4] -0.067 | filanesib 0.231 | zotarolimus 0.036 | idasanutlin 0.076 | alisertib -0.028 | [5] 0.035 | gefitinib -0.012 | [6] -0.109 | lapatinib -0.018 | pictilisib 0.041

SCAP (UniProt Q12770)
inactive: saracatinib -0.026 | sotrastaurin -0.012 | alvocidib -0.067 | Tubastatin A 0.106 | [1] 0.03 | defactinib -0.018 | rucaparib -0.067 | [2] -0.032 | encorafenib 0.055 | [3] 0.002 | [4] 0.007 | filanesib -0.064 | zotarolimus 0.042 | idasanutlin -0.062 | alisertib -0.04 | [5] -0.038 | gefitinib 0.031 | [6] -0.054 | lapatinib 0.063 | pictilisib 0.052

RSBN1L (UniProt Q6PCB5)
inactive: saracatinib -0.004 | sotrastaurin -0.045 | alvocidib 0.188 | Tubastatin A 0.081 | [1] 0.022 | defactinib 0.228 | rucaparib 0.222 | [2] 0.058 | encorafenib 0.169 | [3] -0.035 | [4] -0.087 | filanesib 0.26 | zotarolimus -0.051 | idasanutlin 0.184 | alisertib -0.033 | [5] -0.117 | gefitinib -0.023 | [6] -0.141 | lapatinib 0.2 | pictilisib -0.192

SCRN2 (UniProt Q96FV2)
inactive: saracatinib -0.015 | sotrastaurin -0.001 | alvocidib 0.23 | Tubastatin A 0.015 | [1] -0.021 | defactinib -0.044 | rucaparib -0.127 | [2] 0.017 | encorafenib -0.036 | [3] 0.079 | [4] 0.034 | filanesib -0.087 | zotarolimus -0.291 | idasanutlin -0.109 | alisertib 0.051 | [5] -0.12 | gefitinib 0.015 | [6] -0.021 | lapatinib -0.076 | pictilisib -0.058

SACS (UniProt Q9NZJ4)
inactive: saracatinib -0.034 | sotrastaurin 0 | alvocidib 0.017 | Tubastatin A -0.087 | [1] 0 | defactinib 0.085 | rucaparib -0.054 | [2] -0.079 | encorafenib 0.076 | [3] 0.061 | [4] -0.005 | filanesib -0.051 | zotarolimus 0.028 | idasanutlin 0.085 | alisertib -0.11 | [5] 0.174 | gefitinib -0.014 | [6] 0.071 | lapatinib -0.035 | pictilisib 0.027

SAMHD1 (UniProt Q9Y3Z3)
inactive: saracatinib 0.042 | sotrastaurin 0.054 | alvocidib -0.006 | Tubastatin A -0.021 | [1] -0.199 | defactinib -0.007 | rucaparib 0.046 | [2] -0.055 | encorafenib -0.002 | [3] 0.026 | [4] 0.014 | filanesib -0.013 | zotarolimus -0.007 | idasanutlin -0.01 | alisertib 0.01 | [5] 0.013 | gefitinib -0.032 | [6] 0.059 | lapatinib -0.046 | pictilisib -0.052

SCAMP1 (UniProt O15126)
inactive: saracatinib 0.023 | sotrastaurin 0.035 | alvocidib 0.03 | Tubastatin A 0.002 | [1] -0.033 | defactinib 0.009 | rucaparib -0.029 | [2] -0.042 | encorafenib -0.038 | [3] 0.019 | [4] -0.081 | filanesib -0.017 | zotarolimus -0.035 | idasanutlin -0.024 | alisertib 0.017 | [5] 0.027 | gefitinib 0.021 | [6] 0.095 | lapatinib -0.021 | pictilisib 0.075

SCYL1 (UniProt Q96KG9)
inactive: saracatinib 0.012 | sotrastaurin -0.017 | alvocidib -0.03 | Tubastatin A -0.004 | [1] -0.017 | defactinib -0.061 | rucaparib -0.013 | [2] -0.004 | encorafenib 0.05 | [3] 0.018 | [4] 0.045 | filanesib -0.026 | zotarolimus 0.019 | idasanutlin -0.039 | alisertib -0.027 | [5] 0.011 | gefitinib 0.007 | [6] 0.006 | lapatinib 0.005 | pictilisib -0.032
